# Assay results taken from patent US20060183909A1, “Compositions derived from quinoline and quinoxaline, preparation and use thereof” (priority 2001, published 2006).
# Some results were stated once for a whole list of compounds, not compound by compound.
# System: xanthurenic acid receptor
# Experiment: Screening: displacement of [3H]-XA binding to synaptic membranes at a fixed concentration
# Procedure: If this concentration produces the same or greater displacement than the same concentration of non-radiolabelled XA, then an IC50 is determined. […] The incubation time is 25 min. […] The filters are placed in scintillation vials to which 5 ml of Rotiszint® (Roth) are added and the vials are counted in a Beckman LS6000sc liquid scintillation counter. Specific binding is given as the difference between total binding and nonspecific binding. The percentage inhibition of binding that the synthetic compounds produce is calculated for each compound in relation to its positive control.
row,Structure (SMILES),increase of XA binding to its receptor
1,"O=C(O)c1cc(O)c2cccc(Br)c2n1 [Compound 3x, 4-hydroxy-8-bromo-quinoline-2-carboxylic acid]",more than 100 fold
2,"Cl.NCCCc1cc(O)c2nc(C(=O)O)cc(O)c2c1 [Compound 22c, 4,8-dihydroxy-6-(3-amino-propyl)-quinoline-2-carboxylic acid hydrochloride]",more than 100 fold
